The text below walks through data of PubChem BioAssay AID248 (DTP/NCI, 2004).

SMILES strings stand for the structures. The list is a part of this screen's results and no random one: it gathers tests that were run many times, whatever their T/C, doses with no T/C, and many T/C values between a quarter and a half above the control. Further doses and runs are listed elsewhere. T/C gives the treated animals as a percentage of the vehicle group. Some entries give survivors of the animals treated and no T/C: the source files T/C as zero there, which appears to mark a toxic dose or a test without result, not a measured value. Some doses without a T/C left all or most animals alive at the check, yet need not have been tolerated: the source hardly ever lists a survival T/C far under the control, and the zero likely stands for such cases as well. Counts of survivors are from the toxicity check (mostly the fifth day) where no day follows; animals may have died later. Schedule codes are those of the source, taken here to give the interval after Q, in days (D) or hours (H), and the number of doses after X. Some entries hold several experiments; their values stand side by side, smallest first. Some schedules carry Z or #; the key to these is not given. Where survival is the endpoint, the PubChem record calls one and a half times the control and up active, and a quarter to a half above the control has no call in these data; cut-offs in other NCI protocols can differ.

The subject of this assay is L1210 leukemia ip in BDF1 mice, survival T/C. Kind of assay: NCI In Vivo Anticancer Drug Screen. Data for tumor model L1210 Leukemia (intraperitoneal) in B6D2F1 (BDF1) mice. The note with it: T/C endpoint: mean survival time, higher T/C = longer survival.
[1] abbreviates: dose: 200.0 mg/kg/injection, schedule: Q04DX003 (ip), vehicle: Klucel (hydroxypropylcellulose) (HPC).
[2] abbreviates: dose: 400.0 mg/kg/injection, schedule: Q04DX003 (ip), vehicle: Klucel (hydroxypropylcellulose) (HPC).
Where [3] appears, read: dose: 100.0 mg/kg/injection, schedule: Q04DX003 (ip), vehicle: saline.
The mark [4] stands for this setting: dose: 200.0 mg/kg/injection, schedule: Q04DX003 (ip), vehicle: saline.
[5] abbreviates: dose: 400.0 mg/kg/injection, schedule: Q04DX003 (ip), vehicle: saline.
The mark [6] stands for this setting: dose: 200.0 mg/kg/injection, schedule: Q04DX002 (ip), vehicle: Klucel (hydroxypropylcellulose) (HPC).
Setting [7] is: dose: 400.0 mg/kg/injection, schedule: Q04DX002 (ip), vehicle: Klucel (hydroxypropylcellulose) (HPC).
Setting [8] is: dose: 150.0 mg/kg/injection, schedule: Q01DX001 (ip), vehicle: saline.
The mark [9] stands for this setting: dose: 300.0 mg/kg/injection, schedule: Q01DX001 (ip), vehicle: saline.
[10] abbreviates: dose: 400.0 mg/kg/injection, schedule: Q04DX003 (ip), vehicle: saline with Tween-80.
The mark [11] stands for this setting: dose: 100.0 mg/kg/injection, schedule: Q04DX002 (ip), vehicle: saline with Tween-80.
The mark [12] stands for this setting: dose: 200.0 mg/kg/injection, schedule: Q04DX002 (ip), vehicle: saline with Tween-80.
The mark [13] stands for this setting: dose: 200.0 mg/kg/injection, schedule: Q01DX009 (ip), vehicle: saline with Tween-80.
[14] abbreviates: dose: 400.0 mg/kg/injection, schedule: Q04DX003 (ip), vehicle: other.

`CCCCCCCCCCCCNC(=O)CC(O)(CC(=O)O)C(=O)O` (stereo unspecified): the survivor count is given as 1 of 6 under setting [1] and 0 of 6 under setting [2].
Consider `c1cc(C[N+]23CN4CN(CN(C4)C2)C3)cs1`, for which the survivor count under setting [3] is listed as 6 of 6.
Consider `O=C(O)/C=C/C(=O)Nc1ccc(Cl)cc1C(=O)c1ccccc1`, for which, for the setting “dose: 400.0 mg/kg/injection, schedule: Q01DX009 (ip), vehicle: Klucel (hydroxypropylcellulose) (HPC)”, the survivor count is 6 of 6.
As for `CC1(C)N=C(N)N=C(N)N1c1cccc([N+](=O)[O-])c1`, the survivor count reads like this: under setting [4], 1 of 6; under setting [5], 0 of 6.
Turning to `Nc1scc2[nH]c3ccccc3[n+]12`, the survivor count (dose: 400.0 mg/kg/injection, schedule: Q04DX002 (ip), vehicle: saline) was 0 of 3.
As for `Cc1csc2[nH]c(=O)[nH]c(=O)c12`, for the setting “dose: 200.0 mg/kg/injection, schedule: Q01DX009 (ip), vehicle: water”, the survivor count is reported as 3 of 6.
For the molecule `Brc1cnc(Br)s1`, where the note is “dose: 100.0 mg/kg/injection, schedule: Q04DX002 (ip), vehicle: Klucel (hydroxypropylcellulose) (HPC)”, the T/C was 125 % of control. Besides, the survivor count under setting [6] was 1 of 3 and the survivor count under setting [7] is given as 0 of 3.
For `Cc1ccnc2c(N)cccc12`, the survivor count runs as follows: under setting [8], 2 of 6; under setting [9], 0 of 6.
On to `CCOC(=O)c1cnn2c(=O)[nH]cnc12`, for which, under setting [10], the survivor count is listed as 0 of 6.
Consider `COc1cc(C2=N/C(=C\c3cc(Br)cc(Br)c3O)C(=O)O2)cc(OC)c1OC`, for which the survivor count under setting [11] is given as 3 of 3.
`Cc1ccc(NCC(=O)NN)cc1F`: the survivor count under setting [6] is recorded as 0 of 3 and the survivor count under setting [7] is recorded as 0 of 3.
`CCN(C(=O)Nc1ccc(Cl)cc1)c1ccccc1C`: the survivor count under setting [10] is on record as 5 of 6.
For the molecule `NC(=O)Nc1ccc(Br)cc1Br`, the survivor count under setting [7] is 3 of 3.
For the molecule `CNCCC(=O)NCC1C(c2ccccc2)C1c1ccccc1` (stereo unspecified), the survivor count runs as follows: (dose: 25.0 mg/kg/injection, schedule: Q04DX002 (ip), vehicle: saline with Tween-80) 3 of 3; (dose: 50.0 mg/kg/injection, schedule: Q04DX002 (ip), vehicle: saline with Tween-80) 3 of 3; under setting [12], 0 of 3; (dose: 400.0 mg/kg/injection, schedule: Q04DX002 (ip), vehicle: saline with Tween-80) 0 of 3.
As to `O=C(OCC1OCOC(COC(=O)c2ccccc2)C(OC(=O)c2ccccc2)C1OC(=O)c1ccccc1)c1ccccc1` (stereo unspecified), the survivor count under setting [11] is listed as 3 of 3 and the survivor count under setting [12] was 3 of 3.
With `CCC(C)N` (stereo unspecified), the survivor count under setting [5] was 3 of 6.
Turning to `CC(C)OCCS(=O)(=O)Oc1ncc(Cl)cc1Cl`, the survivor count (dose: 100.0 mg/kg/injection, schedule: Q01DX009 (ip), vehicle: saline with Tween-80) was 6 of 6 and the survivor count under setting [13] is 5 of 6.
As to `CCCCCCCCCCCCCCCCCCNC(=S)Nc1ccc(S(=O)(=O)c2ccc(NC(=S)NCCCCCCCCCCCCCCCCCC)cc2)cc1`, for the setting “dose: 200.0 mg/kg/injection, schedule: Q01DX001 (ip), vehicle: saline”, the survivor count was 4 of 4.
Consider `CC(C)(Br)C(=O)c1ccco1`, for which the survivor count is, setting by setting: under setting [13], 1 of 6; (dose: 400.0 mg/kg/injection, schedule: Q01DX009 (ip), vehicle: saline with Tween-80) 0 of 6.
For `COC(=O)C1CC(C2c3ccccc3-c3ccccc32)CCC1N` (stereo unspecified), the survivor count runs as follows: (dose: 100.0 mg/kg/injection, schedule: Q04DX003 (ip), vehicle: saline with Tween-80) 6 of 6; under setting [10], 1 of 6.
`CC(C)(C)P1(=O)OCC(c2ccccc2)CO1` (stereo unspecified): under setting [14], the survivor count was 3 of 6.
With `C[N+](C)(C)CC1(COC(=O)C(O)(c2ccccc2)c2ccccc2)CCC1`, the survivor count is, setting by setting: (dose: 100.0 mg/kg/injection, schedule: Q01DX001 (ip), vehicle: Klucel (hydroxypropylcellulose) (HPC)) 0 of 6; (dose: 200.0 mg/kg/injection, schedule: Q01DX001 (ip), vehicle: Klucel (hydroxypropylcellulose) (HPC)) 0 of 6; (dose: 400.0 mg/kg/injection, schedule: Q01DX001 (ip), vehicle: Klucel (hydroxypropylcellulose) (HPC)) 0 of 6.
With `ClCCCN1CCN(CCCCl)CC1`, the survivor count (dose: 200.0 mg/kg/injection, schedule: Q01DX009 (ip), vehicle: distilled water + alcohol) is reported as 0 of 10.
With `CC12CCC(C/C1=N\N=C(N)N)C2(C)C` (stereo unspecified), the survivor count is, setting by setting: under setting [8], 1 of 6; under setting [9], 0 of 6.
`CCn1c(O)c(C=N)c(=O)[nH]c1=O`: the survivor count (dose: 400.0 mg/kg/injection, schedule: Q01DX009 (ip), vehicle: saline) was 3 of 6.
As for `O/N=C/Cc1ccccc1`, the survivor count (dose: 400.0 mg/kg/injection, schedule: Q04DX002 (ip), vehicle: DMSO) is listed as 0 of 3.
As for `[O-][n+]1c(CCl)nc2cccc3c2c1-c1ccccc1-3`, under “dose: 200.0 mg/kg/injection, schedule: Q04DX003 (ip), vehicle: saline with Tween-80”, the survivor count is 7 of 7.
In the case of `CCOc1c(Br)cc(Br)cc1C=C(C#N)C#N`, the survivor count reads like this: (dose: 100.0 mg/kg/injection, schedule: Q01DX009 (ip), vehicle: other) 0 of 6 and 5 of 6; (dose: 200.0 mg/kg/injection, schedule: Q01DX009 (ip), vehicle: other) 0 of 6; (dose: 400.0 mg/kg/injection, schedule: Q01DX009 (ip), vehicle: other) 4 of 6; under setting [14], 1 of 6.
As for `CCOC(=O)/C(C#N)=C\c1cccs1`, the survivor count was 0 of 3 under setting [1] and 0 of 3 under setting [2].
Take `NCC(O)COc1ccccc1N` (stereo unspecified): the survivor count by setting is: (dose: 25.0 mg/kg/injection, schedule: Q04DX003 (ip), vehicle: saline) 2 of 6; (dose: 50.0 mg/kg/injection, schedule: Q04DX003 (ip), vehicle: saline) 1 of 6; under setting [3], 0 of 6; under setting [4], 0 of 6; under setting [5], 0 of 6.
Take `CCCOc1ccc(C)cc1`: the survivor count (dose: 400.0 mg/kg/injection, schedule: Q01DX001 (ip), vehicle: saline) was 0 of 4.
As for `CCN(CC)c1ccc(NC(=O)NC(C)C)cc1`, under setting [10], the survivor count is given as 1 of 6.
For `NC(=S)N/N=C1\c2ccccc2-c2c(F)c(F)c(F)c(F)c21`, the survivor count is, setting by setting: (dose: 40.0 mg/kg/injection, schedule: Q01DX001 (ip), vehicle: carboxymethylcellulose (CMC)) 1 of 4; (dose: 50.0 mg/kg/injection, schedule: Q01DX001 (ip), vehicle: carboxymethylcellulose (CMC)) 0 of 4; (dose: 80.0 mg/kg/injection, schedule: Q01DX001 (ip), vehicle: carboxymethylcellulose (CMC)) 0 of 4; (dose: 100.0 mg/kg/injection, schedule: Q01DX001 (ip), vehicle: carboxymethylcellulose (CMC)) 0 of 4; (dose: 200.0 mg/kg/injection, schedule: Q01DX001 (ip), vehicle: carboxymethylcellulose (CMC)) 0 of 4; (dose: 400.0 mg/kg/injection, schedule: Q01DX001 (ip), vehicle: carboxymethylcellulose (CMC)) 0 of 4.
Regarding `CC(=O)Nc1cc(C(=O)Nc2cccc(C3=NCCN3)c2)ccc1C(=O)Nc1cccc(C2=NCCN2)c1`, the survivor count is given as 0 of 6 (dose: 2.7 mg/kg/injection, schedule: Q01DX Z (ip), vehicle: methylcellulose (MC)); 0 of 6 (dose: 4.0 mg/kg/injection, schedule: Q01DX Z (ip), vehicle: methylcellulose (MC)); 0 of 6 (dose: 6.0 mg/kg/injection, schedule: Q01DX Z (ip), vehicle: methylcellulose (MC)); 0 of 6 (dose: 9.0 mg/kg/injection, schedule: Q01DX Z (ip), vehicle: methylcellulose (MC)).
